Results reported in the supplement of paper PMC6411743.
± gives the standard deviation of the averaged measurements. Only a part is listed here, and it is no random draw.

Sequences of proteins named here, by UniProt entry; tags and fusion partners are left off. A change or cut given only in a name is not applied to a line headed by its entry.
UniProt Q9H0D6: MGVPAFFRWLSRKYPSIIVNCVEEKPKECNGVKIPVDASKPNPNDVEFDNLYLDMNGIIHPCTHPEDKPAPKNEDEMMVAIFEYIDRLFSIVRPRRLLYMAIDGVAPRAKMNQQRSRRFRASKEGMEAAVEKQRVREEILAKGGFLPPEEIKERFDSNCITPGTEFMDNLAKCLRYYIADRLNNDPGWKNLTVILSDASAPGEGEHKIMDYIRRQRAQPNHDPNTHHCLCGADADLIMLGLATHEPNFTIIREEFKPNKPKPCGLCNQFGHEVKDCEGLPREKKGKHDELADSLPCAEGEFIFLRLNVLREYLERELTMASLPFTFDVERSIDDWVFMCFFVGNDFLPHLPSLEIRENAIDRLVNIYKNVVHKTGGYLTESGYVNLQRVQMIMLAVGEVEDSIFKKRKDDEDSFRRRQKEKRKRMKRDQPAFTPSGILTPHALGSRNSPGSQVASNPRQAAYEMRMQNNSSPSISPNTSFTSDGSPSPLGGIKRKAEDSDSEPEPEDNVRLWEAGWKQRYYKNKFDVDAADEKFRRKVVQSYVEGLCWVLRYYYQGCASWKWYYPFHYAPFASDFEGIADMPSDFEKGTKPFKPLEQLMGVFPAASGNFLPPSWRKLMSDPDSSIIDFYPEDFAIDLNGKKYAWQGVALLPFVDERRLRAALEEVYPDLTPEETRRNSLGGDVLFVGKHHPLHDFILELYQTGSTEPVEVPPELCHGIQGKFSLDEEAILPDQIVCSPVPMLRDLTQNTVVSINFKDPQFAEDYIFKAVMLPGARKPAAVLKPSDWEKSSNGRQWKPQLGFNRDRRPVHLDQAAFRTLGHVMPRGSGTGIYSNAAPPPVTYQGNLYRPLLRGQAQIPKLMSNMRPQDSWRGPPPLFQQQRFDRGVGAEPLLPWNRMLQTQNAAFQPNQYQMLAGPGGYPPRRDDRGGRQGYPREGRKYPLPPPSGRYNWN
UniProt Q9H008: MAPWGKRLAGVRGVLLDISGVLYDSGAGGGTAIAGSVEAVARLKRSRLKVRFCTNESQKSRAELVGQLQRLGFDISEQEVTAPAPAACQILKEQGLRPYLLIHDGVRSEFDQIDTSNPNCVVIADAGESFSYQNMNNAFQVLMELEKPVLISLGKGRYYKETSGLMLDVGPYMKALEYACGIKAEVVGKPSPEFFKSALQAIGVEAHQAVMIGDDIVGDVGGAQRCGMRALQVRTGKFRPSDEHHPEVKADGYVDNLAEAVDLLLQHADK
UniProt Q9H9E1: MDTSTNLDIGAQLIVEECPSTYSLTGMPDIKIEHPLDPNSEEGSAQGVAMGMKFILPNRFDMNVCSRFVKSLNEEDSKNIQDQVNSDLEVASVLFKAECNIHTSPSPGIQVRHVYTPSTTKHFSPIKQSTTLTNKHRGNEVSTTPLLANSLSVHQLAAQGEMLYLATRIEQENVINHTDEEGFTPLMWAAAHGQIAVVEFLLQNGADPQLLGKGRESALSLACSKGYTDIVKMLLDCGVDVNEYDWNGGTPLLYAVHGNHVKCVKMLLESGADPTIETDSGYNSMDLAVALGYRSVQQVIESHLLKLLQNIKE
UniProt Q9H0C5: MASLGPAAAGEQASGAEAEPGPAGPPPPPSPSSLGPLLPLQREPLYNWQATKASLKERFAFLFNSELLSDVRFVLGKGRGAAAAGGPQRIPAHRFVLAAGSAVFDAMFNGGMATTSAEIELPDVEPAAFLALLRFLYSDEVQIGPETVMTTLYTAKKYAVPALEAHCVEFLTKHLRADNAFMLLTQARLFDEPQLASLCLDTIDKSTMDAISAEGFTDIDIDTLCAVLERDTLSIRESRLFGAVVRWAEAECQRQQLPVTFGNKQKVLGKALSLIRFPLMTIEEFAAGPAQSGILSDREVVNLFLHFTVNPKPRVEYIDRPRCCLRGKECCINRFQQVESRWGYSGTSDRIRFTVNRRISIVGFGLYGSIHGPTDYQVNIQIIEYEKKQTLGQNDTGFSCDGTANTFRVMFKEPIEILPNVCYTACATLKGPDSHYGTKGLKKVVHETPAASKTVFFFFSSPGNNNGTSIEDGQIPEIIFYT
UniProt Q9HAT8: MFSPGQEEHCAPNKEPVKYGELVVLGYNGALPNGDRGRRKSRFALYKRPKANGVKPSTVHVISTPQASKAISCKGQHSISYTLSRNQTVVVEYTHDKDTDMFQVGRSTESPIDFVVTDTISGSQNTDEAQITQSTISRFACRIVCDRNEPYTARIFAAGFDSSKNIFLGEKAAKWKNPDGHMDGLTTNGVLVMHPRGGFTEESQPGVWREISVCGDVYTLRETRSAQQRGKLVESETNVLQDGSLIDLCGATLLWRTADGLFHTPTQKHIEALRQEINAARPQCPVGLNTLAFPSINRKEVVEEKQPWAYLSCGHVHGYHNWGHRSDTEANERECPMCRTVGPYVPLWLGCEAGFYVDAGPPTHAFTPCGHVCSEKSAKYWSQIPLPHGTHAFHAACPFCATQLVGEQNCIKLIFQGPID
UniProt Q9H977: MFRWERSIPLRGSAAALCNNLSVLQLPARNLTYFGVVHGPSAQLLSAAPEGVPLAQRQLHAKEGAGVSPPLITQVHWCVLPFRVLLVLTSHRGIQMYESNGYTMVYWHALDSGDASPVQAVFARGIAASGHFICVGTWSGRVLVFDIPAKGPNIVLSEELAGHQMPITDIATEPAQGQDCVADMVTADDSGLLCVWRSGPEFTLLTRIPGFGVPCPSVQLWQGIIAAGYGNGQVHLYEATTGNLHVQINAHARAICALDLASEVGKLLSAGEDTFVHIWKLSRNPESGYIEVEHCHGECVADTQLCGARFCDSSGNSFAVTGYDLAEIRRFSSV
UniProt Q9H9Y4: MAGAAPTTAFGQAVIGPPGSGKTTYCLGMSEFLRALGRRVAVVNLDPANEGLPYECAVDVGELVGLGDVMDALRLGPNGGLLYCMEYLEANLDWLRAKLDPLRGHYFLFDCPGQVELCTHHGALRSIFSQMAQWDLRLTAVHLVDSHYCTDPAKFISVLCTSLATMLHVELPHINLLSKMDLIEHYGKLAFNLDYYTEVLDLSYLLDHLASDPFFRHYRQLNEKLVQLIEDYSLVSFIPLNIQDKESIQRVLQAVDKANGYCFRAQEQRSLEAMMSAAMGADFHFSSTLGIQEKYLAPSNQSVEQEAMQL
UniProt Q9H0H5: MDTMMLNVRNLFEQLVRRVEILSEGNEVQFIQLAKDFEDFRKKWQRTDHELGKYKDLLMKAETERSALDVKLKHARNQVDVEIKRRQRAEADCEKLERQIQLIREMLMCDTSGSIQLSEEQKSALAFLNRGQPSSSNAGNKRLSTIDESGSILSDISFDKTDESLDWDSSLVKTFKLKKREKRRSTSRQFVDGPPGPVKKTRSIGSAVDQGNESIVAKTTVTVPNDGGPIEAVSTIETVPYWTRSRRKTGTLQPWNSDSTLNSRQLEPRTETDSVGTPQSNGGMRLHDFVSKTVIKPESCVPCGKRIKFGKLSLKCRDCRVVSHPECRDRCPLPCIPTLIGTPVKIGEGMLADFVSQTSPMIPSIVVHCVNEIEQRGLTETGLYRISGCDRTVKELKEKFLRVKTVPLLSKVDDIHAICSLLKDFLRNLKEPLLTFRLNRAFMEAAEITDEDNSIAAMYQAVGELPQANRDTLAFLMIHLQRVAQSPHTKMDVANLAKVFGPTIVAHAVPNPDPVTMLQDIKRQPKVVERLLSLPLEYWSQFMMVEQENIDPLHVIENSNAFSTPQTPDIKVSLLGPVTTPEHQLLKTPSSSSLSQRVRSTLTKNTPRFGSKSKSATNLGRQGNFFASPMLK
UniProt Q9H0B6: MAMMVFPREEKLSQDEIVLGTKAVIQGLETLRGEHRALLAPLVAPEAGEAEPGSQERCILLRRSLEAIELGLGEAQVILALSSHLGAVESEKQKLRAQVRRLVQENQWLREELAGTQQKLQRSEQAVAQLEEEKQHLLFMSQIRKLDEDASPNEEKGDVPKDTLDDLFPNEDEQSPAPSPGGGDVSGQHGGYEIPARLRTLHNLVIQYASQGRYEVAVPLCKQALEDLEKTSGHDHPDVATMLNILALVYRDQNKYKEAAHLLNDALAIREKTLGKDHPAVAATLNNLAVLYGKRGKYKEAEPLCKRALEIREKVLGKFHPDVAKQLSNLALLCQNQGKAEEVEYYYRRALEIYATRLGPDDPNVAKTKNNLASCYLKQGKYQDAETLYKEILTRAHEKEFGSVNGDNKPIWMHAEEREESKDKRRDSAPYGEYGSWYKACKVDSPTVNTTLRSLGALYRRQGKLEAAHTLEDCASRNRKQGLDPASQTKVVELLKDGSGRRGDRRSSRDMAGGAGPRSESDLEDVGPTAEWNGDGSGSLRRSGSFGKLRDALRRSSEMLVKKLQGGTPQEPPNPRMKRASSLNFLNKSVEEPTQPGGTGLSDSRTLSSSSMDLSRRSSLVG
UniProt Q9BZE9, whole entry: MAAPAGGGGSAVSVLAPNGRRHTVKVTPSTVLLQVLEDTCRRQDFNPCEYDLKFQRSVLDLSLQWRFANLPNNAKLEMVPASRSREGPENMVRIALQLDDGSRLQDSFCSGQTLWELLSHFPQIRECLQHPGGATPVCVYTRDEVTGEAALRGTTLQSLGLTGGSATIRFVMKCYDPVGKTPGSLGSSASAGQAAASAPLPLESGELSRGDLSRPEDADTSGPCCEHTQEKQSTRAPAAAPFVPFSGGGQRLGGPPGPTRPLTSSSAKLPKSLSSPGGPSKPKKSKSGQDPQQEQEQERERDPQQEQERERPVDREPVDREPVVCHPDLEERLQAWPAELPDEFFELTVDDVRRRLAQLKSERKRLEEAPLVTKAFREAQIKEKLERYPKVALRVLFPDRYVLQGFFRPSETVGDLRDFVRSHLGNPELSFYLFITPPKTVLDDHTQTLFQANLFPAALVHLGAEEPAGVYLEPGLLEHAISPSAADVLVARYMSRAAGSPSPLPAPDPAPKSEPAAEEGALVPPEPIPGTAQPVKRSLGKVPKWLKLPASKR
UniProt Q9HBL8: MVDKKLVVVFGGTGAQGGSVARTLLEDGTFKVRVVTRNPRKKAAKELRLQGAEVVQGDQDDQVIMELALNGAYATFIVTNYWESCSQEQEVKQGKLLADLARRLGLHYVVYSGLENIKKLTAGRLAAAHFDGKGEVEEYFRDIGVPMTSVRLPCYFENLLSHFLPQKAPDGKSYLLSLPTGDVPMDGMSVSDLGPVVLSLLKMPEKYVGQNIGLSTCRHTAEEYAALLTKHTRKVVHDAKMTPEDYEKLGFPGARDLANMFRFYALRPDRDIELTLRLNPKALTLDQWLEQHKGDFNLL
UniProt Q9HA47: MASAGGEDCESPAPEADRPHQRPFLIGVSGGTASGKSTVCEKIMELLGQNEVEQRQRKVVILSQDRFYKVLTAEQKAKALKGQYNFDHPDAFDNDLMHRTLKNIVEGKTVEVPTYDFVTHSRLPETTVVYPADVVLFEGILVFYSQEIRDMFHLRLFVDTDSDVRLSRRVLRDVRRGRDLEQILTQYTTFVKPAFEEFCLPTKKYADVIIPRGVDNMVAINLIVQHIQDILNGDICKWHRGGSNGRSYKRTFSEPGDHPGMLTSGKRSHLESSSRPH
UniProt Q9NPG3, whole entry: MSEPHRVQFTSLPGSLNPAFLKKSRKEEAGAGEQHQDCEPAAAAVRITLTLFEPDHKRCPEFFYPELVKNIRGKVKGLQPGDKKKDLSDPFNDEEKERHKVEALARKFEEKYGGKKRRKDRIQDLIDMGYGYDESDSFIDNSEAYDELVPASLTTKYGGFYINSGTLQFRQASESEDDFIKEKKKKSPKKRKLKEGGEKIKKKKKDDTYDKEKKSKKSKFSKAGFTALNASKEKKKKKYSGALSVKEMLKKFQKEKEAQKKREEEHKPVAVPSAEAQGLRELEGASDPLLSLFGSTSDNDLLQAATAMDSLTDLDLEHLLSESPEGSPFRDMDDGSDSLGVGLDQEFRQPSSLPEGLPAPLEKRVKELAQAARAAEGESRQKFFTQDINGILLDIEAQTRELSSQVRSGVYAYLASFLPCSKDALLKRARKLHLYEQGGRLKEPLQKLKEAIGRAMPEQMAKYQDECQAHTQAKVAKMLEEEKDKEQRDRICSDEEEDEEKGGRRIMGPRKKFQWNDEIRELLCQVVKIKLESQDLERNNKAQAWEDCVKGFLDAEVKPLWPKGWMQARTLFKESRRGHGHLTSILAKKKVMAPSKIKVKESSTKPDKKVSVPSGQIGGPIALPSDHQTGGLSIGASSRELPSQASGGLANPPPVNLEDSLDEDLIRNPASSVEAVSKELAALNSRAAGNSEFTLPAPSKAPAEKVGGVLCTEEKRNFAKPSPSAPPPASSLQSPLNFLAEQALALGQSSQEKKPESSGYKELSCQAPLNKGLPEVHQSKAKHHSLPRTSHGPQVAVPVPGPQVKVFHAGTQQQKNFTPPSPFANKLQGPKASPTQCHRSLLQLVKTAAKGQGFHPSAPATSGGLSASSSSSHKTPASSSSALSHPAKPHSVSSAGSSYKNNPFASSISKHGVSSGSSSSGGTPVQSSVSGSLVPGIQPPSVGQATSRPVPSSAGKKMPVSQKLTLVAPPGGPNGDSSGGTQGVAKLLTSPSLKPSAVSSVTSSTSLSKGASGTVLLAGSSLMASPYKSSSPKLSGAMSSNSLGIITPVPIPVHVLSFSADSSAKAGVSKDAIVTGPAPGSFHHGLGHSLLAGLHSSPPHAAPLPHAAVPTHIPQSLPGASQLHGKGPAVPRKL

Compound: Nc1ncnc2c1ncn2[C@@H]1O[C@H](COP(=O)(O)OP(=O)(O)NP(=O)(O)O)[C@@H](O)[C@H]1O [adenylyl imidodiphosphate]
Assay: NP40-soluble protein abundance relative to vehicle (solubility fold change) (ratio); higher = more soluble protein in presence of AMP-PNP
Outline: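 In three independent experiments, Jurkat crude lysate made by Dounce homogenisation was treated for 10 min at room temperature and then 3 min at 37 °C with eight concentrations ranging from 0.1 to 10 mM. It was then solubilised with 0.8% NP40 plus benzonase for 60 min at 4 °C and ultracentrifuged. The supernatant was TMT-labelled for LC-MS/MS, and each value is the fold change against the detergent-processed vehicle for the same replicate, using vsn-normalised intensities.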

Target	NP40-soluble protein abundance (concentration: 1mM)	NP40-soluble protein abundance (concentration: 2mM)	NP40-soluble protein abundance (concentration: 4mM)	NP40-soluble protein abundance (concentration: 6mM)	NP40-soluble protein abundance (concentration: 8mM)	NP40-soluble protein abundance (concentration: 10mM)
UniProt Q9H8K7	1.02 ± 0.032	1.01 ± 0.015	1.01 ± 0.03	1 ± 0.036	0.952 ± 0.021	0.957 ± 0.037
XRN2 (UniProt Q9H0D6)	0.997 ± 0.029	1.01 ± 0.027	0.992 ± 0.037	1.02 ± 0.04	0.995 ± 0.043	1.02 ± 0.036
LHPP (UniProt Q9H008)	0.998 ± 0.048	0.973 ± 0.018	1.05 ± 0.014	1.06 ± 0.072	1.1 ± 0.031	1.07 ± 0.039
ANKRA2 (UniProt Q9H9E1)	0.912 ± 0.057	0.91 ± 0.023	0.911 ± 0.025	0.97 ± 0.087	0.99 ± 0.058	0.963 ± 0.05
UniProt Q9GZT8 and related entries	0.959 ± 0.022	0.923 ± 0.051	0.958 ± 0.017	0.983 ± 0.034	0.992 ± 0.032	0.956 ± 0.033
UniProt Q9H8M2 and related entries	0.978 ± 0.01	1.02 ± 0.053	1.01 ± 0.042	0.979 ± 0.011	0.96 ± 0.041	0.993 ± 0.017
UniProt Q9C0I1 and related entries	0.987 ± 0.034	0.966 ± 0.066	0.973 ± 0.057	0.971 ± 0.017	0.976 ± 0.019	0.962 ± 0.043
UniProt Q9H173 and related entries	0.983 ± 0.025	1.02 ± 0.056	0.98 ± 0.05	0.983 ± 0.04	0.965 ± 0.032	0.954 ± 0.016
SRA1 (UniProt Q9HD15)	0.967 ± 0.025	0.967 ± 0.023	0.955 ± 0.042	0.942 ± 0.013	0.938 ± 0.016	0.935 ± 0.027
CCDC134 (UniProt Q9H6E4)	1.02 ± 0.049	1.02 ± 0.078	0.994 ± 0.045	1.04 ± 0.068	1.07 ± 0.034	1.04 ± 0.072
UniProt Q9HCJ0 and related entries	1.043 ± 0.0013	1.033 ± 0.0035	1.01 ± 0.013	1.01 ± 0.022	1 ± 0.016	1.02 ± 0.02
EHD1 (UniProt Q9H4M9)	1.02 ± 0.02	1.03 ± 0.022	1.02 ± 0.024	0.934 ± 0.039	0.942 ± 0.058	0.935 ± 0.012
UniProt Q9C0D3 and related entries	1.02 ± 0.023	0.956 ± 0.042	0.99 ± 0.017	0.9793 ± 0.0084	0.9936 ± 0.0094	0.974 ± 0.013
UniProt Q9H2V7 and related entries	0.986 ± 0.017	0.988 ± 0.029	0.985 ± 0.013	0.982 ± 0.016	0.997 ± 0.03	0.998 ± 0.052
ANAPC1 (UniProt Q9H1A4)	0.977 ± 0.033	0.929 ± 0.091	0.963 ± 0.049	0.924 ± 0.08	0.901 ± 0.098	0.912 ± 0.11
RANGRF (UniProt Q9HD47)	1 ± 0.035	0.995 ± 0.044	1.02 ± 0.054	0.978 ± 0.031	1.01 ± 0.034	1 ± 0.021
UniProt Q9H0C5 and related entries	0.953 ± 0.036	0.87 ± 0.013	0.899 ± 0.028	0.952 ± 0.019	0.961 ± 0.04	0.902 ± 0.032
CARS2 (UniProt Q9HA77)	0.956 ± 0.015	0.93 ± 0.054	0.977 ± 0.027	0.9436 ± 0.0065	0.955 ± 0.012	0.902 ± 0.011
PELI2 (UniProt Q9HAT8)	1.01 ± 0.022	0.979 ± 0.065	1.02 ± 0.051	0.986 ± 0.04	1.01 ± 0.03	0.99 ± 0.019
UniProt Q9HCD6 and related entries	1.014 ± 0.0088	1.03 ± 0.03	0.9865 ± 0.0061	1.019 ± 0.0037	0.999 ± 0.013	0.99957 ± 4.1e-05

Complete entries from above:
UniProt Q9HCD6 and related entries is listed with NP40-soluble protein abundance (concentration: 1mM): 1.014 ± 0.0088; NP40-soluble protein abundance (concentration: 2mM): 1.03 ± 0.03; NP40-soluble protein abundance (concentration: 4mM): 0.9865 ± 0.0061; NP40-soluble protein abundance (concentration: 6mM): 1.019 ± 0.0037; NP40-soluble protein abundance (concentration: 8mM): 0.999 ± 0.013; NP40-soluble protein abundance (concentration: 10mM): 0.99957 ± 4.1e-05
CARS2 (UniProt Q9HA77) is listed with NP40-soluble protein abundance (concentration: 1mM): 0.956 ± 0.015; NP40-soluble protein abundance (concentration: 2mM): 0.93 ± 0.054; NP40-soluble protein abundance (concentration: 4mM): 0.977 ± 0.027; NP40-soluble protein abundance (concentration: 6mM): 0.9436 ± 0.0065; NP40-soluble protein abundance (concentration: 8mM): 0.955 ± 0.012; NP40-soluble protein abundance (concentration: 10mM): 0.902 ± 0.011
UniProt Q9C0I1 and related entries is listed with NP40-soluble protein abundance (concentration: 1mM): 0.987 ± 0.034; NP40-soluble protein abundance (concentration: 2mM): 0.966 ± 0.066; NP40-soluble protein abundance (concentration: 4mM): 0.973 ± 0.057; NP40-soluble protein abundance (concentration: 6mM): 0.971 ± 0.017; NP40-soluble protein abundance (concentration: 8mM): 0.976 ± 0.019; NP40-soluble protein abundance (concentration: 10mM): 0.962 ± 0.043
UniProt Q9H2V7 and related entries is listed with NP40-soluble protein abundance (concentration: 1mM): 0.986 ± 0.017; NP40-soluble protein abundance (concentration: 2mM): 0.988 ± 0.029; NP40-soluble protein abundance (concentration: 4mM): 0.985 ± 0.013; NP40-soluble protein abundance (concentration: 6mM): 0.982 ± 0.016; NP40-soluble protein abundance (concentration: 8mM): 0.997 ± 0.03; NP40-soluble protein abundance (concentration: 10mM): 0.998 ± 0.052

More records.

Target	NP40-soluble protein abundance (concentration: 1mM)	NP40-soluble protein abundance (concentration: 2mM)	NP40-soluble protein abundance (concentration: 4mM)	NP40-soluble protein abundance (concentration: 6mM)	NP40-soluble protein abundance (concentration: 8mM)	NP40-soluble protein abundance (concentration: 10mM)
UBA5 (UniProt Q9GZZ9)	1.014 ± 0.009	1.04 ± 0.043	1.017 ± 0.0028	0.994 ± 0.044	0.973 ± 0.041	0.998 ± 0.037
UniProt Q9HAT2 and related entries	0.978 ± 0.072	0.958 ± 0.049	0.954 ± 0.064	1.05 ± 0.044	1.03 ± 0.017	1.06 ± 0.01
UniProt Q9HD26 and related entries	0.977 ± 0.02	0.9749 ± 0.0067	0.9551 ± 0.0094	0.942 ± 0.017	0.942 ± 0.033	0.9086 ± 0.0073
NOL11 (UniProt Q9H8H0)	1.03 ± 0.038	0.943 ± 0.049	1.01 ± 0.035	0.992 ± 0.022	1.04 ± 0.016	1.02 ± 0.029
UniProt Q9H0W8 and related entries	1.05 ± 0.044	1.06 ± 0.044	1.02 ± 0.027	0.998 ± 0.031	1.02 ± 0.033	0.993 ± 0.052
UniProt Q9BZQ6-2	1.01 ± 0.051	0.995 ± 0.045	0.978 ± 0.049	0.9891 ± 0.0052	0.9728 ± 0.007	0.963 ± 0.016
SEPSECS (UniProt Q9HD40)	0.995 ± 0.0065	0.973 ± 0.03	0.994 ± 0.032	0.968 ± 0.035	0.964 ± 0.038	0.955 ± 0.058
ZHX3 (UniProt Q9H4I2)	1.04 ± 0.032	1.064 ± 0.0044	1.09 ± 0.014	1.04 ± 0.055	1.02 ± 0.029	1.04 ± 0.035
PCIF1 (UniProt Q9H4Z3)	0.963 ± 0.029	0.9926 ± 0.0087	1.04 ± 0.065	1.1 ± 0.095	1.09 ± 0.046	1.11 ± 0.054
WDR54 (UniProt Q9H977)	0.992 ± 0.02	0.99 ± 0.011	1.02 ± 0.051	1.01 ± 0.04	1.02 ± 0.039	0.969 ± 0.042
UniProt Q9H9Y6 and related entries	1.03 ± 0.034	0.99 ± 0.11	1.06 ± 0.058	1.06 ± 0.11	1.08 ± 0.12	1.03 ± 0.13
ADNP (UniProt Q9H2P0)	1.03 ± 0.022	1.06 ± 0.011	1.08 ± 0.039	1.1 ± 0.062	1.13 ± 0.083	1.16 ± 0.072
UniProt Q9BZI7 and related entries	1.05 ± 0.014	1.09 ± 0.054	1.05 ± 0.031	1.02 ± 0.049	1.02 ± 0.028	1.02 ± 0.021
UniProt Q9H9T3-2	1.003 ± 0.0041	0.956 ± 0.096	0.971 ± 0.035	0.931 ± 0.058	0.965 ± 0.062	0.933 ± 0.066
UniProt Q9H7C9 and related entries	0.9902 ± 0.0036	1.04 ± 0.058	0.968 ± 0.027	0.998 ± 0.037	0.979 ± 0.037	0.979 ± 0.031
GPN2 (UniProt Q9H9Y4)	0.983 ± 0.013	0.963 ± 0.017	1.01 ± 0.037	0.9646 ± 0.0056	0.968 ± 0.028	0.935 ± 0.039
UniProt Q9BZL1	1.03 ± 0.041	1.04 ± 0.03	1.05 ± 0.07	1.01 ± 0.033	1.09 ± 0.044	1.02 ± 0.066
UniProt Q9H7Z3	1.01 ± 0.03	1.03 ± 0.035	1.05 ± 0.04	1.08 ± 0.04	1.07 ± 0.058	1.08 ± 0.054
WDR11 (UniProt Q9BZH6)	0.9948 ± 0.0063	0.956 ± 0.01	0.937 ± 0.033	0.975 ± 0.042	0.953 ± 0.034	0.921 ± 0.029
UniProt Q9HC21 and related entries	0.969 ± 0.035	0.907 ± 0.024	0.958 ± 0.061	0.973 ± 0.059	1.02 ± 0.073	0.99 ± 0.079

Target	NP40-soluble protein abundance (concentration: 1mM)	NP40-soluble protein abundance (concentration: 2mM)	NP40-soluble protein abundance (concentration: 4mM)	NP40-soluble protein abundance (concentration: 6mM)	NP40-soluble protein abundance (concentration: 8mM)	NP40-soluble protein abundance (concentration: 10mM)
RACGAP1 (UniProt Q9H0H5)	1.018 ± 0.0086	1.07 ± 0.039	1.07 ± 0.013	1.087 ± 0.0077	1.07 ± 0.028	1.1 ± 0.044
UniProt Q9BZJ0-2|Q5JY65 and related entries	0.993 ± 0.013	0.999 ± 0.057	1.03 ± 0.05	1.03 ± 0.041	1.04 ± 0.038	1.05 ± 0.095
KLC2 (UniProt Q9H0B6)	1.01 ± 0.038	1.03 ± 0.063	1.02 ± 0.033	1.02 ± 0.019	0.9984 ± 0.0094	1.02 ± 0.019
WDR12 (UniProt Q9GZL7)	0.997 ± 0.017	0.928 ± 0.082	0.979 ± 0.011	1 ± 0.028	0.999 ± 0.016	0.94 ± 0.033
UniProt Q9H8V3 and related entries	0.979 ± 0.041	0.963 ± 0.041	0.9918 ± 0.0047	0.985 ± 0.015	1 ± 0.03	0.989 ± 0.042
MED20 (UniProt Q9H944)	0.959 ± 0.016	0.911 ± 0.033	0.963 ± 0.03	1.04 ± 0.057	1.04 ± 0.047	1.04 ± 0.05
UniProt Q9H1I8 and related entries	1.02 ± 0.05	1.06 ± 0.0094	1.04 ± 0.02	1.06 ± 0.067	1.07 ± 0.052	1.06 ± 0.076
KATNBL1 (UniProt Q9H079)	1 ± 0.034	1.01 ± 0.02	0.999 ± 0.039	0.985 ± 0.018	1 ± 0.02	0.992 ± 0.011
UniProt Q9GZN8 and related entries	1.01 ± 0.011	0.948 ± 0.03	0.977 ± 0.01	0.991 ± 0.029	0.993 ± 0.015	0.993 ± 0.015
UniProt Q9BZE9 and related entries	1.01 ± 0.025	1.04 ± 0.028	1.01 ± 0.034	0.987 ± 0.048	0.962 ± 0.032	0.979 ± 0.05
NMRAL1 (UniProt Q9HBL8)	1.03 ± 0.042	1.02 ± 0.047	1.01 ± 0.041	1.02 ± 0.015	1.002 ± 0.01	1.01 ± 0.024
RDH14 (UniProt Q9HBH5)	1.02 ± 0.036	0.99 ± 0.01	1.02 ± 0.071	1.03 ± 0.091	1.11 ± 0.085	1.06 ± 0.082
SENP3 (UniProt Q9H4L4)	0.982 ± 0.03	0.98 ± 0.06	0.945 ± 0.065	0.953 ± 0.089	0.938 ± 0.066	0.925 ± 0.096
UniProt Q9H1Z4 and related entries	0.9915 ± 0.0073	0.987 ± 0.041	1.03 ± 0.028	0.981 ± 0.06	1.01 ± 0.03	1.01 ± 0.089
C17orf75 (UniProt Q9HAS0)	0.971 ± 0.015	0.924 ± 0.053	1.01 ± 0.044	1.01 ± 0.022	1.02 ± 0.035	1.01 ± 0.064
WDR55 (UniProt Q9H6Y2)	1.06 ± 0.027	1.03 ± 0.061	1.07 ± 0.012	1.06 ± 0.024	1.07 ± 0.033	1.06 ± 0.039
RAB33B (UniProt Q9H082)	1.04 ± 0.028	1 ± 0.025	1.03 ± 0.02	1.04 ± 0.042	1.03 ± 0.047	1.02 ± 0.074
UCK1 (UniProt Q9HA47)	0.981 ± 0.029	1.01 ± 0.028	1.01 ± 0.011	1.02 ± 0.026	0.9745 ± 0.0089	1.01 ± 0.01
UniProt Q9NPG3 and related entries	1.01 ± 0.013	1.05 ± 0.037	1.07 ± 0.021	1.06 ± 0.034	1.06 ± 0.022	1.09 ± 0.067
UniProt Q9GZY4	0.995 ± 0.024	0.939 ± 0.041	1.01 ± 0.022	0.977 ± 0.015	0.9936 ± 0.0057	1.01 ± 0.051
